Source: publication PMC5572376
No constants are given. Whether binding was seen depends on the method and setting. A result given as binding can be weak or reduced; the word gives no strength. Tags and fused reporters may be left off the sequences shown.

Biological target: DivIVA (bacterial two-hybrid fusion) (S. aureus)
Test: two-hybrid; bacterial two-hybrid (BACTH, T18/T25 adenylate cyclase fusions) in E. coli BTH101; beta-galactosidase activity judged qualitatively by blue colour on X-Gal

B1: PBP1 (bacterial two-hybrid fusion) (protein, UniProt Q53725 1-744)
chain: MAKQKIKIKKNKIGAVLLVGLFGLLFFILVLRISYIMITGHSNGQDLVMKANEKYLVKNAQQPERGKIYDRNGKVLAEDVERYKLVAVIDKKASANSKKPRHVVDKKETAKKLSTVINMKPEEIEKRLSQKKAFQIEFGRKGTNLTYQDKLKIEKMNLPGISLLPETERFYPNGNFASHLIGRAQKNPDTGELKGALGVEKIFDSYLSGSKGSLRYIHDIWGYIAPNTKKEKQPKRGDDVHLTIDSNIQVFVEEALDGMVERYQPKDLFAVVMDAKTGEILAYSQRPTFNPETGKDFGKKWANDLYQNTYEPGSTFKSYGLAAAIQEGAFDPDKKYKSGHRDIMGSRISDWNRVGWGEIPMSLGFTYSSNTLMMHLQDLVGADKMKSWYERFGFGKSTKGMFDGEAPGQIGWSNELQQKTSSFGQSTTVTPVQMLQAQSAFFNDGNMLKPWFVNSVENPVSKRQFYKGQKQIAGKPITKDTAEKVEKQLDLVVNSKKSHAANYRIDGYEVEGKTGTAQVAAPNGGGYVKGPNPYFVSFMGDAPKKNPKVIVYAGMSLAQKNDQEAYELGVSKAFKPIMENTLKYLNVGKSKDDTSNAEYSKVPDVEGQDKQKAIDNVSAKSLEPVTIGSGTQIKAQSIKAGNKVLPHSKVLLLTDGDLTMPDMSGWTKEDVIAFENLTNIKVNLKGSGFVSHQSISKGQKLTEKDKIDVEFSSENVDSNSTNNSDSNSDDKKKSDSKTDKDKSD
For B1, the binding was “binds”.
